According to patent publication US4371536A, “β-Carbolin-3-carboxylic acid derivatives” (A/S Ferrosan, priority 1979, dated 1983):

Columns and labels:
[1] = Inhibition of motor coordination (ataxia) in mice; conditions: mouse, in vivo, sc, 30 minutes after s.c. administration, read-out: ED50 Ataxia (Motor incoordination)
Procedure: The inhibition of motor coordination in mice was also studied 30 minutes after subcutaneous administration in accordance with a method described in the literature (Buus Lassen et al, Acta pharmacol. et toxicol., 1971, 39, 1-16).

[2] = Acute toxicity in mice (deaths within 24 hours); conditions: mouse, in vivo
Procedure: The acute toxicity in mice was determined by recording the number of deaths within 24 hours.

CN1C(=O)CN=C(c2ccccc2)c2cc(Cl)ccc21 [Diazepam, reference compound]
TD50 at 0.5 h [1]: 3 mg/kg | LD50 at 24 h [2]: 80 mg/kg
